# The supplement of paper PMC12067093, “Discovery and optimisation of a covalent ligand for TRIM25 and its application to targeted protein ubiquitination” (Chemical Science, 2025)
# Sequences of proteins named here, by UniProt entry; tags and fusion partners are left off. A change or cut given only in a name is not applied to a line headed by its entry.
# UniProt Q96K12: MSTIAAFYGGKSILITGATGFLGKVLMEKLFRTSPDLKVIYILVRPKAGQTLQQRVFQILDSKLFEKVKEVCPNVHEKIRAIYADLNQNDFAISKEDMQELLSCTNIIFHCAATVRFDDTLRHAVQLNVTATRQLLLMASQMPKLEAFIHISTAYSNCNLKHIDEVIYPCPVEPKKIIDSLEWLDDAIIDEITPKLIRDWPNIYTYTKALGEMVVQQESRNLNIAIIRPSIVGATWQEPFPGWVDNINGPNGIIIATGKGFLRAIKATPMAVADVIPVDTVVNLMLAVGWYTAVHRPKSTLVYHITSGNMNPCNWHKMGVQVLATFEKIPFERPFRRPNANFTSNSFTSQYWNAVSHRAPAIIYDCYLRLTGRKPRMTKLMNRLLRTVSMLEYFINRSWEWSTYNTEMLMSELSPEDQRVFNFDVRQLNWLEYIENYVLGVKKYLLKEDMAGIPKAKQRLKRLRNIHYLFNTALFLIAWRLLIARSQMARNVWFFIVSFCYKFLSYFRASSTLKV
# UniProt P10109: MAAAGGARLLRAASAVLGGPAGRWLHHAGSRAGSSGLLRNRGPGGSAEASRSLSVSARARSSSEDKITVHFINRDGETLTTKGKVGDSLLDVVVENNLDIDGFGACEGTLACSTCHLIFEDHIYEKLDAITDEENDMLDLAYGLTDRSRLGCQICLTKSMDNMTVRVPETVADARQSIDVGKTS
# UniProt Q8TB52: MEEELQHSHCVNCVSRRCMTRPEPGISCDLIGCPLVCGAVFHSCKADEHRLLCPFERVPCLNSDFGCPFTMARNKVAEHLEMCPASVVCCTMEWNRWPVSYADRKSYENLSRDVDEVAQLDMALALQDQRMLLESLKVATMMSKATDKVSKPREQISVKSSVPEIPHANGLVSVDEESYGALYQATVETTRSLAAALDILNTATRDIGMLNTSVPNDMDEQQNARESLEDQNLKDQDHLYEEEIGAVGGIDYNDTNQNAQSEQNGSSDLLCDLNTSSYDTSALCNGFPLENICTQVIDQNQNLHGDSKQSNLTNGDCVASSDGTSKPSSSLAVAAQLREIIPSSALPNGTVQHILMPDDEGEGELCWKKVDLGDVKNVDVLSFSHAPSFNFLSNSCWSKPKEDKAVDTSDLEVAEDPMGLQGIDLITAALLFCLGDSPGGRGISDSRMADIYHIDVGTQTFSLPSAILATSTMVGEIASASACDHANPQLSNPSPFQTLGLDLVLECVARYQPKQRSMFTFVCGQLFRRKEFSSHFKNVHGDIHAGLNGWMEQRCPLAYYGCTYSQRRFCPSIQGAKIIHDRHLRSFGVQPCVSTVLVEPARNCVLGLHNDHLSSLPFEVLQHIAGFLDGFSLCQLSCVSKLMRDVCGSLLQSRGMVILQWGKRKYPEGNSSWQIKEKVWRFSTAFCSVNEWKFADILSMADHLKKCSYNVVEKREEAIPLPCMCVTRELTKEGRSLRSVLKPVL
# UniProt Q9NW38: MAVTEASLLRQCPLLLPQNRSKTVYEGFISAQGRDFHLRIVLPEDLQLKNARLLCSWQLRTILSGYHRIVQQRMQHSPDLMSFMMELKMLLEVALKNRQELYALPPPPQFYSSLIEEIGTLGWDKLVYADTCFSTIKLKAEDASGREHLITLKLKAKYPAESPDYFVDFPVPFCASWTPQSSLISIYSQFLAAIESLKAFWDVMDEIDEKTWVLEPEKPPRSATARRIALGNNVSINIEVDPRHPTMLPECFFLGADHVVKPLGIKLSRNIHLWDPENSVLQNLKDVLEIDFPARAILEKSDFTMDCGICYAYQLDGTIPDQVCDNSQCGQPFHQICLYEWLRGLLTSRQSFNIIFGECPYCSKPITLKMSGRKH
# UniProt Q5W0V3: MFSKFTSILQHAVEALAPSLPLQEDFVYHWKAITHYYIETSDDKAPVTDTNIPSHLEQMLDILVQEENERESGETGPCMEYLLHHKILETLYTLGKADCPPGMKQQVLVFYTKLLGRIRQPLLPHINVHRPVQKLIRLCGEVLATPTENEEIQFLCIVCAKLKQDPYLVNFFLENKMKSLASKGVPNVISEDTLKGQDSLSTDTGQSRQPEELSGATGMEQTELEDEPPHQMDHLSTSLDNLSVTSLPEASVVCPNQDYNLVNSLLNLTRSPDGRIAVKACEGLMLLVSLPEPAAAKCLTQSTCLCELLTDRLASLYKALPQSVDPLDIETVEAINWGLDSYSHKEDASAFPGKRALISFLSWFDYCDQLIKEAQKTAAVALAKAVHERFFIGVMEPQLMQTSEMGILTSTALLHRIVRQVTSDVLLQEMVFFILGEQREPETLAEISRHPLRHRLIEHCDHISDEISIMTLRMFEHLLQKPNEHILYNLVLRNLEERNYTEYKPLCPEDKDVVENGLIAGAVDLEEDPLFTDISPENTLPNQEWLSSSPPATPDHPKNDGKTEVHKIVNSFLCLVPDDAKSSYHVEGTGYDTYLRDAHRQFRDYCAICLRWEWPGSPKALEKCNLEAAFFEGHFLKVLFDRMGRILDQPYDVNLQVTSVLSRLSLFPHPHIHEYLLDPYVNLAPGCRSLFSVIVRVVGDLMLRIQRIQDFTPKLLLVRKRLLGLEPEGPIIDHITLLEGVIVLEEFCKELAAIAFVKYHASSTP
# UniProt Q7Z6J4: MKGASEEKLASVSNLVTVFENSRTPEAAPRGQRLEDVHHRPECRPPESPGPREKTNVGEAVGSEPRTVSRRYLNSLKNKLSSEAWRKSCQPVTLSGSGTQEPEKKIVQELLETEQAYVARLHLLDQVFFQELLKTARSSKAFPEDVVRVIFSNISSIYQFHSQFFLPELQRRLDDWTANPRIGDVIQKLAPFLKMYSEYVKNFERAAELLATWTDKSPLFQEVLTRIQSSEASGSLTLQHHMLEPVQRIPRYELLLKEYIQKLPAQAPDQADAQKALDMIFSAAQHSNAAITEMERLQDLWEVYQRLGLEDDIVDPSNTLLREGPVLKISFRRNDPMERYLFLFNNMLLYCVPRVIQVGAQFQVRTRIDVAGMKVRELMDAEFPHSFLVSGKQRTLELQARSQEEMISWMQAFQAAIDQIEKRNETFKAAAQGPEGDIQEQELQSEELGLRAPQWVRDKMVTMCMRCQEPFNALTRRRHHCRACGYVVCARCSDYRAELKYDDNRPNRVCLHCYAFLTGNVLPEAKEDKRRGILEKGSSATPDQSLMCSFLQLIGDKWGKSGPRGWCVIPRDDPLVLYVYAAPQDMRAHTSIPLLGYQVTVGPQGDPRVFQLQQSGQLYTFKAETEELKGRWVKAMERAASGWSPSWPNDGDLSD
# UniProt Q9UK61: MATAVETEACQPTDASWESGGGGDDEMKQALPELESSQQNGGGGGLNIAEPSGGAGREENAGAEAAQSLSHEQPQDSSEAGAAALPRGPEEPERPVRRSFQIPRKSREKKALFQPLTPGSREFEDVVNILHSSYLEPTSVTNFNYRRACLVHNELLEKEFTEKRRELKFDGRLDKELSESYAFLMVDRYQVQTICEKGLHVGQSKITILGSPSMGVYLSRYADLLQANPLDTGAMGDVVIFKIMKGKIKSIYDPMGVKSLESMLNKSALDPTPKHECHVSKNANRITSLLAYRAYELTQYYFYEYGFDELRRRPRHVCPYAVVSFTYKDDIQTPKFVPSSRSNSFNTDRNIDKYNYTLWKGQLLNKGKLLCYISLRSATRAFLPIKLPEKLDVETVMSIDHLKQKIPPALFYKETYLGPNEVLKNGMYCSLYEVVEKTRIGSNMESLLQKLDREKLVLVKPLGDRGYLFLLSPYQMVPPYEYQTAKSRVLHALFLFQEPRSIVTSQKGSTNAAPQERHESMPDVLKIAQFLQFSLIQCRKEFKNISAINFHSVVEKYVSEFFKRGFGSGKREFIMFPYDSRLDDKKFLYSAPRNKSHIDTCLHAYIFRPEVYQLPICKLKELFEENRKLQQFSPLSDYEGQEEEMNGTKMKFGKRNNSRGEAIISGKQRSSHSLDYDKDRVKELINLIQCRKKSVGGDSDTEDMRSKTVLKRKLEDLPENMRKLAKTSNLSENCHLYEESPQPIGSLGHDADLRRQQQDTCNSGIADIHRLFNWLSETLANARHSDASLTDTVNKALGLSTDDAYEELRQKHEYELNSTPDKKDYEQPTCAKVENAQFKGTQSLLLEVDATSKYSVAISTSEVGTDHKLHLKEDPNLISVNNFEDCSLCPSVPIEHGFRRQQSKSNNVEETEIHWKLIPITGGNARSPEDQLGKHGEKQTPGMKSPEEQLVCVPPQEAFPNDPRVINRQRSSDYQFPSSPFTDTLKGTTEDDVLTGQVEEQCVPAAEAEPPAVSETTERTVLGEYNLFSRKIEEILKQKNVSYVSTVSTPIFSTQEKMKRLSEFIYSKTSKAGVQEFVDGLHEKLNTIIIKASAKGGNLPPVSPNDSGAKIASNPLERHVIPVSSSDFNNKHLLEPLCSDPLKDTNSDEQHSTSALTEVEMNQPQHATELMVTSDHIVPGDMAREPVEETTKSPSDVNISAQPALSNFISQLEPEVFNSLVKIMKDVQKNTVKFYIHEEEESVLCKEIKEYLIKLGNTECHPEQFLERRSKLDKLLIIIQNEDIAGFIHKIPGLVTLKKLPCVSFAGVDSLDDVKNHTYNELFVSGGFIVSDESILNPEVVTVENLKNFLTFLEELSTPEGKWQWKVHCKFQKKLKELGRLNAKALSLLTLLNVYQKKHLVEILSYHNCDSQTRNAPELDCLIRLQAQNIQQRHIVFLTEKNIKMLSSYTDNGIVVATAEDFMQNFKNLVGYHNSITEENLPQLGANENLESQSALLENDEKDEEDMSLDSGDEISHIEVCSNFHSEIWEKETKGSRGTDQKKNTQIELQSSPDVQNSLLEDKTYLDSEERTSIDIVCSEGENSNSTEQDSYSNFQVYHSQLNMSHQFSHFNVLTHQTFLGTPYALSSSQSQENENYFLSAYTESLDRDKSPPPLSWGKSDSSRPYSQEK
# UniProt Q8N531: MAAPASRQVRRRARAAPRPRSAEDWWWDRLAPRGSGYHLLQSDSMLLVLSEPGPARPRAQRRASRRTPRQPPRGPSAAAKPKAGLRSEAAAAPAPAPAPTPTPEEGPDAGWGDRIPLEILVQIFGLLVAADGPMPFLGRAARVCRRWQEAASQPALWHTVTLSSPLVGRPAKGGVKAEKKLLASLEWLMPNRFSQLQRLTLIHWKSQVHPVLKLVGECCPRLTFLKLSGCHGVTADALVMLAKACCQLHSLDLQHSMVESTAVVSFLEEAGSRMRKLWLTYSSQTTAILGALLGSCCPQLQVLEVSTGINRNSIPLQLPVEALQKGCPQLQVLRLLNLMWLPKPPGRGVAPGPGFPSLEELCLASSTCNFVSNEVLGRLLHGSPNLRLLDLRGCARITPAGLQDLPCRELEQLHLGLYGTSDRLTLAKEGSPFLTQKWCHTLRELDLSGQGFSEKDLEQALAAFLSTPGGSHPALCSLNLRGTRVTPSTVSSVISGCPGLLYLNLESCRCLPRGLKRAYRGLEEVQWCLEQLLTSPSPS
# UniProt P22570: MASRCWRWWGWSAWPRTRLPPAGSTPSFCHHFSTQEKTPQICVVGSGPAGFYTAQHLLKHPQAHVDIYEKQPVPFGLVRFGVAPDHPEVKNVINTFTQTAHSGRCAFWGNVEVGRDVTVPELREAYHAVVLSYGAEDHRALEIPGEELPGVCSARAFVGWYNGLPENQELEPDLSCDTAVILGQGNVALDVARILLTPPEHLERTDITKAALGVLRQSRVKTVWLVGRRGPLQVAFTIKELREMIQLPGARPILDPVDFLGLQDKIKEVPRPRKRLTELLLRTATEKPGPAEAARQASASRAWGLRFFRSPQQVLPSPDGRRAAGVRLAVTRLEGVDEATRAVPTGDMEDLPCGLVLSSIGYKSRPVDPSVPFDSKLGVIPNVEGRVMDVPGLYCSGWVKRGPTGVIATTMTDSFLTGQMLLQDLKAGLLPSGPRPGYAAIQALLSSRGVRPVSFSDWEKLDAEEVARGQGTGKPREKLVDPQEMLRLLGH
# UniProt P14324: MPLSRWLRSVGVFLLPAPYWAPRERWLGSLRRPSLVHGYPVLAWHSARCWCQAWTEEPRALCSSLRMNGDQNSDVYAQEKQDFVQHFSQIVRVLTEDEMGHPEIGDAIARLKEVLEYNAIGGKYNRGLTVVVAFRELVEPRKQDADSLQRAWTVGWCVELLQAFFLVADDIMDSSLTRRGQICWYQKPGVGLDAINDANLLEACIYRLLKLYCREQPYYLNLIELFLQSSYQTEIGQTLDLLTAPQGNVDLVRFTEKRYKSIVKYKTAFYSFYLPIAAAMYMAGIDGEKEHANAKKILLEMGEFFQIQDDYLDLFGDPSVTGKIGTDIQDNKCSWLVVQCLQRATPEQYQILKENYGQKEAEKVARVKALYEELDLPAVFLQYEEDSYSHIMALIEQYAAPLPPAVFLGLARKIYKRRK
# UniProt Q8N8J7: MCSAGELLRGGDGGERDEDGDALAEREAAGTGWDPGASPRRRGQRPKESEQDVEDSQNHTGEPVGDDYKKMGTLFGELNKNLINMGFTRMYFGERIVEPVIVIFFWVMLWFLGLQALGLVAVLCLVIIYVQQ
# The list shows a part of the results.
# Compound: CC1Cc2ccccc2N1C(=O)C1CCCN(C1)C(=O)CCl (mixture of isomers) [TRIM25 ligand 11 (diastereomer mixture)]
# Assay: probe-labelled cysteine peptide fold change vs DMSO (competition) (log2 fold change); higher = less target engagement (more negative = stronger competition)
# Conditions: THP-1, incubation time: 4 h
# 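Also: competitive chemoproteomic profiling in live THP-1 cells with an iodoacetamide desthiobiotin (IA-DTB) probe, comparing probe-labelled peptide intensities in compound-treated cells against DMSO-treated controls.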
target,measurement,setting,value
FANCD2_Q9BXW9_893_NSECDPTPSHR (UniProt Q9BXW9),probe-labelled cysteine peptide fold change,10 µM,0.0136
same,probe-labelled cysteine peptide fold change,50 µM,-0.178
FAR2_Q96K12_313_STLVYHITSGNMNPCNWHK (UniProt Q96K12),probe-labelled cysteine peptide fold change,10 µM,0.0268
same,probe-labelled cysteine peptide fold change,50 µM,-0.105
FDX1_P10109_155_LGCQICLTK (UniProt P10109),probe-labelled cysteine peptide fold change,10 µM,-0.126
same,probe-labelled cysteine peptide fold change,50 µM,-0.0749
FAR1_Q8WVX9_305_NIMVYNCTTGSTNPFHWGEVEYHVISTFK (UniProt Q8WVX9),probe-labelled cysteine peptide fold change,10 µM,0.177
same,probe-labelled cysteine peptide fold change,50 µM,0.113
FASN_P49327_1558_HAQPTCPGAQLCTVYYASLNFRDIMLATGK (UniProt P49327),probe-labelled cysteine peptide fold change,10 µM,-0.313
same,probe-labelled cysteine peptide fold change,50 µM,-0.182
FBXO30_Q8TB52_396_NVDVLSFSHAPSFNFLSNSCWSK (UniProt Q8TB52),probe-labelled cysteine peptide fold change,10 µM,-0.0439
same,probe-labelled cysteine peptide fold change,50 µM,-0.2
FBN2_P35556_1012_WDEDECIHPVPGK (UniProt P35556),probe-labelled cysteine peptide fold change,10 µM,0.164
same,probe-labelled cysteine peptide fold change,50 µM,0.27
FANCI_Q9NVI1_1025_EDALFCK (UniProt Q9NVI1),probe-labelled cysteine peptide fold change,10 µM,0.124
same,probe-labelled cysteine peptide fold change,50 µM,-0.134
FANCL_Q9NW38_251_HPTMLPECFFLGADHVVKPLGIK (UniProt Q9NW38),probe-labelled cysteine peptide fold change,10 µM,-0.113
same,probe-labelled cysteine peptide fold change,50 µM,-0.0654
FAR2_Q96K12_170_HIDEVIYPCPVEPK (UniProt Q96K12),probe-labelled cysteine peptide fold change,10 µM,0.0704
same,probe-labelled cysteine peptide fold change,50 µM,0.0219
FASTKD1_Q53R41_733_VDFECILDK (UniProt Q53R41),probe-labelled cysteine peptide fold change,10 µM,0.000572
same,probe-labelled cysteine peptide fold change,50 µM,-0.0254
FAM160B1_Q5W0V3_507_NYTEYKPLCPEDK (UniProt Q5W0V3),probe-labelled cysteine peptide fold change,10 µM,-0.0533
same,probe-labelled cysteine peptide fold change,50 µM,-0.172
FCGRT_P55899_221_ARPSSPGFSVLTCSAFSFYPPELQLR (UniProt P55899),probe-labelled cysteine peptide fold change,10 µM,-0.148
same,probe-labelled cysteine peptide fold change,50 µM,-0.278
FASN_P49327_1448+1459_AINCATSGVVGLVNCLR (UniProt P49327),probe-labelled cysteine peptide fold change,10 µM,-0.0183
same,probe-labelled cysteine peptide fold change,50 µM,-0.0543
FBXL15_Q9H469_150_LSLAHCDWVDGLALR (UniProt Q9H469),probe-labelled cysteine peptide fold change,10 µM,0.107
same,probe-labelled cysteine peptide fold change,50 µM,0.00341
FAM193A_P78312_106_LGTTTHDTCSEDTYSTLLQR (UniProt P78312),probe-labelled cysteine peptide fold change,10 µM,0.151
same,probe-labelled cysteine peptide fold change,50 µM,-0.0956
FBXO30_Q8TB52_570_RFCPSIQGAK (UniProt Q8TB52),probe-labelled cysteine peptide fold change,10 µM,0.00556
same,probe-labelled cysteine peptide fold change,50 µM,0.152
FBN2_P35556_1052_EYETLCPR (UniProt P35556),probe-labelled cysteine peptide fold change,10 µM,0.0554
same,probe-labelled cysteine peptide fold change,50 µM,0.365
FGD2_Q7Z6J4_548_GSSATPDQSLMCSFLQLIGDK (UniProt Q7Z6J4),probe-labelled cysteine peptide fold change,10 µM,0.332
same,probe-labelled cysteine peptide fold change,50 µM,-0.12
FAM208A_Q9UK61_318_HVCPYAVVSFTYK (UniProt Q9UK61),probe-labelled cysteine peptide fold change,10 µM,-0.153
same,probe-labelled cysteine peptide fold change,50 µM,-0.00352
FAM136A_Q96C01_110_QQLDSCVTK (UniProt Q96C01),probe-labelled cysteine peptide fold change,10 µM,-0.171
same,probe-labelled cysteine peptide fold change,50 µM,0.0583
FERMT3_Q86UX7_235_CLMQQGIK (UniProt Q86UX7),probe-labelled cysteine peptide fold change,10 µM,0.0304
same,probe-labelled cysteine peptide fold change,50 µM,0.000276
FBXO4_Q9UKT5_330_HEWQDEFSHIMAMTDPAFGSSGRPLLVLSCISQGDVKR (UniProt Q9UKT5),probe-labelled cysteine peptide fold change,10 µM,0.00118
same,probe-labelled cysteine peptide fold change,50 µM,-0.139
FARSA_Q9Y285_493_VNLQMVYDSPLCR (UniProt Q9Y285),probe-labelled cysteine peptide fold change,10 µM,-0.0524
same,probe-labelled cysteine peptide fold change,50 µM,-0.00472
FBXO30_Q8TB52_592_SFGVQPCVSTVLVEPAR (UniProt Q8TB52),probe-labelled cysteine peptide fold change,10 µM,0.0321
same,probe-labelled cysteine peptide fold change,50 µM,-0.0298
FAM20B_O75063_331_SILAPLYQCCIIR (UniProt O75063),probe-labelled cysteine peptide fold change,10 µM,-0.0183
same,probe-labelled cysteine peptide fold change,50 µM,0.25
FEN1_P39748_182_VYAAATEDMDCLTFGSPVLMR (UniProt P39748),probe-labelled cysteine peptide fold change,10 µM,-0.0914
same,probe-labelled cysteine peptide fold change,50 µM,-0.13
FDX1_P10109_152+155_LGCQICLTK (UniProt P10109),probe-labelled cysteine peptide fold change,10 µM,-0.12
same,probe-labelled cysteine peptide fold change,50 µM,-0.14
FES_P07332_626_LIGVCTQK (UniProt P07332),probe-labelled cysteine peptide fold change,10 µM,0.0381
same,probe-labelled cysteine peptide fold change,50 µM,0.19
FASN_P49327_2273_LSIPTYGLQCTR (UniProt P49327),probe-labelled cysteine peptide fold change,10 µM,-0.0274
same,probe-labelled cysteine peptide fold change,50 µM,0.0779
FAM208A_Q9UK61_761_QQQDTCNSGIADIHR (UniProt Q9UK61),probe-labelled cysteine peptide fold change,10 µM,0.000862
same,probe-labelled cysteine peptide fold change,50 µM,-0.184
FARSB_Q9NSD9_76_YDLLCLEGLVR (UniProt Q9NSD9),probe-labelled cysteine peptide fold change,10 µM,0.226
same,probe-labelled cysteine peptide fold change,50 µM,0.113
FASN_P49327_1186_LLSAACR (UniProt P49327),probe-labelled cysteine peptide fold change,10 µM,-0.0481
same,probe-labelled cysteine peptide fold change,50 µM,0.0194
FASN_P49327_1118+1127_FCFTPHTEEGCLSER (UniProt P49327),probe-labelled cysteine peptide fold change,10 µM,0.0556
same,probe-labelled cysteine peptide fold change,50 µM,-0.215
FBXL6_Q8N531_407_ITPAGLQDLPCR (UniProt Q8N531),probe-labelled cysteine peptide fold change,10 µM,-0.0524
same,probe-labelled cysteine peptide fold change,50 µM,-0.0194
FDXR_P22570_105_CAFWGNVEVGR (UniProt P22570),probe-labelled cysteine peptide fold change,10 µM,0.0353
same,probe-labelled cysteine peptide fold change,50 µM,0.00422
FAM208A_Q9UK61_617_SHIDTCLHAYIFRPEVYQLPICK (UniProt Q9UK61),probe-labelled cysteine peptide fold change,10 µM,-0.0112
same,probe-labelled cysteine peptide fold change,50 µM,-0.118
FBXL6_Q8N531_439_WCHTLR (UniProt Q8N531),probe-labelled cysteine peptide fold change,10 µM,-0.0599
same,probe-labelled cysteine peptide fold change,50 µM,-0.0919
FBN2_P35556_682_CDCPPGLAVGMDGR (UniProt P35556),probe-labelled cysteine peptide fold change,10 µM,0.118
same,probe-labelled cysteine peptide fold change,50 µM,0.308
FASN_P49327_1759_CLATHGR (UniProt P49327),probe-labelled cysteine peptide fold change,10 µM,0.0351
same,probe-labelled cysteine peptide fold change,50 µM,0.12
FDPS_P14324_333_CSWLVVQCLQR (UniProt P14324),probe-labelled cysteine peptide fold change,10 µM,-0.00731
same,probe-labelled cysteine peptide fold change,50 µM,-0.0276
FASN_P49327_1564_HAQPTCPGAQLCTVYYASLNFR (UniProt P49327),probe-labelled cysteine peptide fold change,10 µM,-0.0207
same,probe-labelled cysteine peptide fold change,50 µM,0.000581
FAM98C_Q17RN3_287_ADLSCLVPATSVAVR (UniProt Q17RN3),probe-labelled cysteine peptide fold change,10 µM,0.0695
same,probe-labelled cysteine peptide fold change,50 µM,0.113
FAM98A_Q8NCA5_126_MLCVNAPPKK (UniProt Q8NCA5),probe-labelled cysteine peptide fold change,10 µM,-0.0255
same,probe-labelled cysteine peptide fold change,50 µM,-0.0926
FASN_P49327_1448_AINCATSGVVGLVNCLR (UniProt P49327),probe-labelled cysteine peptide fold change,10 µM,-0.0803
same,probe-labelled cysteine peptide fold change,50 µM,-0.0165
FASN_P49327_1141_AALQEELQLCK (UniProt P49327),probe-labelled cysteine peptide fold change,10 µM,0.0967
same,probe-labelled cysteine peptide fold change,50 µM,-0.02
FASTKD5_Q7L8L6_708_NQYCYGSR (UniProt Q7L8L6),probe-labelled cysteine peptide fold change,10 µM,0.00998
same,probe-labelled cysteine peptide fold change,50 µM,0.1
FCHO1_O14526_113_CKEEVVSTLDAVQVLSGVSQLLPK (UniProt O14526),probe-labelled cysteine peptide fold change,10 µM,-0.295
same,probe-labelled cysteine peptide fold change,50 µM,0.228
FAM241A_Q8N8J7_2_CSAGELLR (UniProt Q8N8J7),probe-labelled cysteine peptide fold change,10 µM,0.306
same,probe-labelled cysteine peptide fold change,50 µM,0.559
FBXO7_Q9Y3I1_286_RLQLLPESFICK (UniProt Q9Y3I1),probe-labelled cysteine peptide fold change,10 µM,-0.0129
same,probe-labelled cysteine peptide fold change,50 µM,0.128
FAM185A_Q8N0U4_161_SSGSGCVK (UniProt Q8N0U4),probe-labelled cysteine peptide fold change,10 µM,0.105
same,probe-labelled cysteine peptide fold change,50 µM,0.0307
FBXL17_Q9UF56_342_CLSASLVCK (UniProt Q9UF56),probe-labelled cysteine peptide fold change,10 µM,-0.0107
same,probe-labelled cysteine peptide fold change,50 µM,0.0876
FBXO5_Q9UKT4_95_LSCIGSPIVSPR (UniProt Q9UKT4),probe-labelled cysteine peptide fold change,10 µM,-0.0925
same,probe-labelled cysteine peptide fold change,50 µM,-0.0984
FBXW11_Q9UKB1_100_MCHYQHGHINSYLK (UniProt Q9UKB1),probe-labelled cysteine peptide fold change,10 µM,0.0217
same,probe-labelled cysteine peptide fold change,50 µM,0.0175
FDPS_P14324_204_PGVGLDAINDANLLEACIYR (UniProt P14324),probe-labelled cysteine peptide fold change,10 µM,0.293
same,probe-labelled cysteine peptide fold change,50 µM,0.219

# Part of the list above, with bars between the fields.
target | measurement | setting | value
FANCL_Q9NW38_251_HPTMLPECFFLGADHVVKPLGIK (UniProt Q9NW38) | probe-labelled cysteine peptide fold change | 50 µM | -0.0654
FAR2_Q96K12_170_HIDEVIYPCPVEPK (UniProt Q96K12) | probe-labelled cysteine peptide fold change | 10 µM | 0.0704
